Results reported in the supplement of paper PMC3334620.
Over roughly 33,000 sequences, “E-score (-0.5 to 0.5)” has its median near -8e-05; the highest 2% begin near 0.23. The list shows a part of the results.

Biological target: T1, Nrg2 (UniProt P38082)
T1 sequence: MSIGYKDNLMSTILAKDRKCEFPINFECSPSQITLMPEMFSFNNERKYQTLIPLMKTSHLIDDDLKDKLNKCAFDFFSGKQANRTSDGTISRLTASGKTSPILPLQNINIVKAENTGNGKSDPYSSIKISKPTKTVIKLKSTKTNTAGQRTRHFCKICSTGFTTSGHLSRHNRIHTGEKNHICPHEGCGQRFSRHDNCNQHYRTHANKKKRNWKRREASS
Assay: PBM E-score (8-mer binding enrichment) (E-score (-0.5 to 0.5)); higher = stronger / more preferred TF binding
Settings: protein concentration: 100 nM; construct: GST-full length
Method in brief: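 Detection of bound protein used fluorescent anti-GST, with scans normalised by masliner. The proteins were GST-tagged yeast transcription factors applied at about 100-200 nM to universal all-10-mer Agilent arrays made double-stranded by primer extension. Each ungapped eight-base word, pooled with its reverse complement, was scored with an E-score from the Universal PBM Analysis Suite.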

Sequence	PBM E-score
CCTAGTCA	-0.0951
AAAGTGAC	-0.072
GTCAAAAA	-0.0378
CTTCGAGA	-0.00769
GCTTGGCA	-0.0882
ACTGGCCT	-0.0393
TAAATATA	0.144
CGCTGATA	-0.0682
ACGGCTGG	-0.0521
ATGACATG	-0.06
CAGAGTAG	0.1
AGGTACGG	-0.131
ACAGGCGG	0.021
ATGAACCA	0.187
ATCAGCAT	0.0775
AAAAGTTT	-0.0494
ACGAGGAG	0.0902
AAGTGGGC	0.0154
CCCTACGA	0.0112
CGACCTCA	-0.0396
CATGTGTC	-0.0154
CCCAGAGA	-0.0625
ACCATACC	-0.0923
AATATACC	0.0724
AGACTCGG	-0.318

Sequence	PBM E-score
ACTCCTAC	-0.0656
GCATAAGC	0.0163
CTGCCCAC	-0.164
ACCACTCT	0.0195
ACGTCGAC	-0.0107
ATACCAAG	0.13
CAACATTA	0.133
CCTACTAA	-0.023
TGCGAGAA	-0.022
CGAGCCCG	-0.0355
CCGGTTCC	-0.0579
ACTTATCG	0.0251
CCTGGCAG	-0.00758
CCGTGGAA	-0.00678
ACTGCAAA	0.0615
TATGCTGA	-0.0222
CCCTAACC	-0.0294
CTGGACGA	-0.126
AGCAAAAT	0.0735
CGTGGGCC	-0.0731
CGGAACAA	0.122
AAAACGGC	0.112
AGTCGGTC	-0.114
CGGTCTTA	-0.249
AATGTTAC	-0.0328

Sequence	PBM E-score
AGCTTCTC	-0.0219
CGGACAAA	0.107
GTCACGAA	-0.00388
GAACTTAC	-0.118
GGTGGCGA	-0.16
CACATACC	-0.218
CGATGTGA	-0.0423
ATACCTGG	-0.115
CAGTGAGA	-0.124
AACGTTGT	0.0521
CGAAGACG	-0.0796
CGCTTTTC	-0.0275
GACAAGAC	0.154
TCCAAACA	-0.079
CTTTTACC	0.0111
CTCTGGCA	-0.0135
CTGTTGTC	0.0877
TAAGATAA	0.00597
TTCTTCAA	-0.037
AATCAGCC	-0.165
ACAGGGTC	0.402
AGGGTACA	0.181
ATCTTGAA	0.0333
GTTTATGA	0.00539
CGTCTTAA	-0.0213

Sequence	PBM E-score
ACGGTAGT	-0.203
AAGGTGTC	-0.0243
GCCCACAC	0.114
CGCAGGAG	-0.0171
AATAGGGG	0.189
AAACGCTG	-0.211
ATTAGGGA	-0.0191
CTATGCTC	-0.0692
CTTCCTTC	-0.13
CATACTTC	-0.148
AGAAAGAT	0.106
GTAACCAC	-0.21
TGCGGCAA	-0.0076
GCTGGCTA	-0.142
ATATGTAG	0.00142
AAAACACG	0.0805
CCAGCGGG	-0.0833
ATGCAGAA	0.151
GCAGTAAA	-0.0439
AGTTTTCC	0.178
AGCTTAAC	-0.0699
CCTTCTAA	-0.126
ATATCATG	0.0241
CGAATACA	0.0068
CATGAATG	0.135

Sequence	PBM E-score
ATTATTAC	0.101
CCTAGGGC	-0.136
ATGTGCAG	-0.0713
TGACAACA	0.058
ACTAGGCC	-0.192
AGAGGTGG	-0.0295
AGTAAAGG	0.12
GAGCAGAC	-0.093
CACGCGAG	0.225
CACATGCC	-0.0123
CTTGGGGA	0.187
ACTCGCAT	0.139
GTTAGATA	0.14
CCGTAAGG	-0.361
ACTGAATG	0.122
CGCCTACG	-0.117
GGAACCTA	-0.06
ATGAACGA	0.0704
ATTAGGCG	0.0626
AATAATCT	0.21
TGACCAAA	-0.0504
CCCTAGGG	0.0519
ATGACATC	0.188
CACCTCAA	0.13
AAAGACCA	-0.138

Sequence	PBM E-score
TTCAGGAA	-0.129
CTTGCCAA	0.00852
CAGCTCCC	-0.328
GGTGACGA	-0.084
GAACCTCC	-0.246
ATTAAACA	0.0199
AATATCTA	-0.0725
CATCGATA	0.109
ACACCCCC	-0.386
CGCCGACG	-0.136
CAGCTTCC	-0.0666
GGCGCCAC	-0.0207
GTGGGAAC	-0.0658
CATCGGGC	-0.0546
AAAGTAAG	-0.116
TGGATACA	0.0219
CTAAACAC	-0.0264
GGCGGACC	0.00587
CCCGTTGA	-0.125
GCCAGCAA	0.00326
ACGACTAA	-0.0548
CAAGGCCA	0.0591
CGTGAGGC	-0.184
CACCTCAG	-0.11
AGGGATCG	-0.0308

Sequence	PBM E-score
CAGATTGC	0.0918
ACCGCCCT	-0.141
ACGACTAT	0.0778
CTCATCCC	-0.234
GGCGGGAA	-0.11
GCCAACTA	-0.022
ATTTAGTC	0.0158
CGAAAAGC	-0.0517
CAGAGGAA	-0.053
CCCGTGTC	-0.0522
CCATTCGC	0.0979
TGTCGTAA	0.0488
TCCAAGCA	-0.0496
CTGTCTAA	0.212
TCTAGGCA	-0.195
CACGGTCG	-0.06
GATTCCGC	0.0999
GGCTTTTA	-0.316
ACGGTGGG	-0.00943
ATCGTAAC	0.128
CGGTACCG	-0.0366
AAATAAGC	0.0818

Look-ups from the results shown.
Entry for CAGATTGC under PBM E-score: 0.0918
Entry for TGTCGTAA under PBM E-score: 0.0488
Entry for TCTAGGCA under PBM E-score: -0.195
Entry for TCCAAGCA under PBM E-score: -0.0496
Entry for CGAAAAGC under PBM E-score: -0.0517
Entry for CCCGTGTC under PBM E-score: -0.0522
